Assay results published in patent publication US20030162803A1, “Anhydrovinblastine for the treatment of cancer” (priority 1997, published 2003).
Some entries share one result that the patent states for a list of compounds. At least one compound was matched to its structure with a doubt left.

Tested on: Nb2-U17 lymphoma transplants
Experiment: Rat U17 lymphoma model (Nb2-U17 tumor transplants)
Assay type: in vivo, Nb rats
Conditions: single intraperitoneal subacutely toxic dose, FIG. 2
Description: The U17 cell line was originally derived from a transplantable malignant lymphoma that arose spontaneously in male Noble rats (British Columbia Cancer Research Centre Joint Animal Breeding Facility with parents obtained from the National Institutes of Health, Bethesda, Md.). The cell line is prolactin dependent and can readily be cultured in vitro. U17 derived solid tumors are generated by subcutaneous injection (via the trocar method) of a small (2 mm^2) piece of tumor tissue obtained from male Noble rat. Tumor tissue used for the implants arose two weeks after injection of 5×10^6 U17 cells (from culture) subcutaneously in the nape of the neck. For assessing the anti-tumor activity of AHVB, tumor bearing animals (2-4 gm tumors) were given a single treatment of drug and tumor size was measured as a function of time following treatment. The anti-tumor activity was assessed at a series of different doses in order to determine the maximum therapeutic dose of AHVB. […] For these studies anti-tumor activity was determined at the maximum therapeutic dose of each drug. […]
The oncolytic effects of each of the three drugs were assessed at a subacutely toxic dose, determined for each drug in preliminary studies using non-tumor-bearing, mature male Nb rats, i.e. 3.0, 2.0 and 0.7 mg/kg for AHVB, Navelbine™ and vincristine, respectively as illustrated in FIG. 2. […]

Structure (SMILES): CCC1=C[C@H]2CN(CCc3c([nH]c4ccccc34)[C@@](C(=O)OC)(c3cc4c(cc3OC)N(C)[C@H]3[C@@](O)(C(=O)OC)[C@H](OC(C)=O)[C@]5(CC)C=CCN6CC[C@]43[C@@H]65)C2)C1 [AHVB, 3′,4′-anhydrovinblastine]
- recurrence of tumors: > 10 days
